The text below walks through data of PubChem BioAssay AID264 (DTP/NCI, 2004).

The list does not hold the whole screen: it gathers tests that were run many times, whatever their T/C, doses with no T/C, and many T/C values between a quarter and a half above the control. Further doses and runs are listed elsewhere. T/C is the treated group as % of the vehicle group. Schedule codes are those of the source, read here as Q, the interval in days (D) or hours (H), X, the number of doses. Some doses were run more than once; the results are listed from low to high. Some T/C values carry the count of animals alive at the toxicity check (mostly the fifth day); without a count, all were alive then. Some entries give survivors of the animals treated and no T/C: the source files T/C as zero there, which appears to mark a toxic dose or a test without result, not a measured value. Counts of survivors are from the toxicity check (mostly the fifth day) where no day follows; animals may have died later. Numbered stars: 1 amine (or outer) side, 2 acyl side, 3 side chain; on linkers, the order of the positions; unused ones are H or OH. Bridge positions count the residues as written; N and C are the ends. Square brackets hold non-standard residues; d marks the D form. Peptide text beside a SMILES is read from it. I, II: the chains in the order shown. Actinocin(1to9) = Cc1c2oc3c(C)ccc(C(=O)[*:2])c3nc-2c(C(=O)[*:1])c(N)c1=O; NMeV = CN[CH](C(=O)O)C(C)C; Aze = O=C(O)[CH]1CCN1; Sar = CNCC(=O)O

For the assay, the system named is nude mice, LX-1 lung xenograft intrarenal, tumor weight T/C. As to the kind of experiment: NCI In Vivo Anticancer Drug Screen. Data for tumor model Human Lung LX-1 Xenograft (intrarenal inoculation) in NU/NU Swiss (nude) mice. The settings on record: T/C endpoint: mean tumor weight change, higher T/C = larger tumour; for T/C: evaluated on day 11. In short, it runs like this: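 Tumor-bearing mice receive test compound or vehicle; tumor size is then measured in each group. The treated value is divided by the vehicle value to give T/C.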
For orientation: Xenograft models place foreign cells or tissue in a host animal.

[1] abbreviates: dose: 2400.0 mg/kg/injection, schedule: Q04DX003 (sc), vehicle: saline with Tween-80.
Setting [2] is: dose: 200.0 mg/kg/injection, schedule: Q01DX010 (sc), vehicle: Klucel (hydroxypropylcellulose) (HPC).
The mark [3] stands for this setting: dose: 400.0 mg/kg/injection, schedule: Q01DX010 (sc), vehicle: saline.

As to `C[C@@](O)(/C=C/[C@H]1CC=CC(=O)O1)[C@@H](C[C@@H](O)\C=C/C=C\C=C\CO)OP(=O)(O)O`, where the note is “dose: 3.75 mg/kg/injection, schedule: Q04DX003 (sc), vehicle: other”, the T/C is 125 % of control. Moreover, the survivor count is 0 of 6 on day 11 (dose: 30.0 mg/kg/injection, schedule: Q04DX003 (sc), vehicle: other); 2 of 6 on day 11 (dose: 37.5 mg/kg/injection, schedule: Q04DX003 (sc), vehicle: other); 0 of 6 on day 11 (dose: 75.0 mg/kg/injection, schedule: Q04DX003 (sc), vehicle: other); 0 of 6 on day 11 (dose: 150.0 mg/kg/injection, schedule: Q04DX003 (sc), vehicle: other); 0 of 6 on day 11 (dose: 300.0 mg/kg/injection, schedule: Q04DX003 (sc), vehicle: other).
Turning to `[Cl][Pt+2][Cl].[NH-]CC1(C[NH-])CCC1`, the survivor count is, setting by setting: (dose: 100.0 mg/kg/injection, schedule: Q04DX003 (sc), vehicle: suspension in saline) 0 of 6 on day 11; (dose: 200.0 mg/kg/injection, schedule: Q04DX003 (sc), vehicle: suspension in saline) 0 of 6 on day 11; (dose: 400.0 mg/kg/injection, schedule: Q04DX003 (sc), vehicle: suspension in saline) 0 of 6 on day 11.
As for `CC1=C(/C=C/C(C)=C/C=C/C(C)=C/C=O)C(C)(C)CCC1`, under setting [1], the survivor count is listed as 3 of 6 on day 11.
For `CCCCCCCCCCS(=O)CC(CO)NC(=O)/C=C/c1c(C)[nH]c(=O)[nH]c1=O` (stereo not given), the survivor count is 2 of 6 on day 11 (dose: 37.5 mg/kg/injection, schedule: Q04DX003 (sc), vehicle: distilled water + Tween-80) and 0 of 6 on day 11 (dose: 75.0 mg/kg/injection, schedule: Q04DX003 (sc), vehicle: distilled water + Tween-80).
Consider `O=c1ssc(=Nc2ccccc2)n1-c1ccccc1`, for which the T/C under setting [2] was 132 % of control [2 of 2 alive on day 11]. Further, the survivor count (dose: 800.0 mg/kg/injection, schedule: Q01DX010 (sc), vehicle: Klucel (hydroxypropylcellulose) (HPC)) was 0 of 3 on day 11.
For the molecule `c1cc2n(n1)CCN2`, the T/C (dose: 166.66 mg/kg/injection, schedule: Q04DX003 (ip), vehicle: saline) is 147 % of control and the T/C (dose: 200.0 mg/kg/injection, schedule: Q01DX010 (sc), vehicle: saline) is 144 % of control. For the same molecule, the survivor count is, setting by setting: under setting [3], 0 of 3 on day 11 and 2 of 6 on day 11; (dose: 666.6 mg/kg/injection, schedule: Q04DX003 (ip), vehicle: saline) 0 of 3 on day 11; (dose: 1333.3 mg/kg/injection, schedule: Q04DX003 (ip), vehicle: saline) 0 of 3 on day 11.
Consider `CN1CCN(CCCN2c3ccccc3Sc3ccc(C(F)(F)F)cc32)CC1`, for which, for the setting “dose: 50.0 mg/kg/injection, schedule: Q01DX010 (sc), vehicle: saline”, the T/C was 54, 66, 140, 145 % of control. Moreover, the survivor count under setting [3] is on record as 0 of 3 on day 11.
For `C[N+](C)(C)c1cc2c(nn1)Nc1ccccc1S2`, where the note is “dose: 50.0 mg/kg/injection, schedule: Q01DX010 (sc), vehicle: Klucel (hydroxypropylcellulose) (HPC)”, the T/C was 138 % of control. For the same molecule, the survivor count was 0 of 3 on day 11 under setting [2] and 0 of 3 on day 11 (dose: 400.0 mg/kg/injection, schedule: Q01DX010 (sc), vehicle: Klucel (hydroxypropylcellulose) (HPC)).
For the molecule `Cc1c(N)nc(C(CC(N)=O)NCC(N)C(N)=O)nc1C(=O)NC(C(=O)NC(C)C(O)C(C)C(=O)NC(C(=O)NCCc1nc(-c2nc(C(=O)NCCCNC(C)c3ccccc3)cs2)cs1)C(C)O)C(OC1OC(CO)C(O)C(O)C1OC1OC(CO)C(O)C(OC(N)=O)C1O)c1cnc[nH]1` (stereo not given), the survivor count (dose: 64.0 mg/kg/injection, schedule: Q01DX010 (sc), vehicle: saline) was 0 of 3 on day 11.
Consider `CC[N](CC)[Ge]([CH2]C)[CH2]C.CC[N](CC)[Ge]([CH2]C)[CH2]C`, for which the survivor count (dose: 100.0 mg/kg/injection, schedule: Q01DX010 (sc), vehicle: suspension in saline) is 1 of 3 on day 11.
As for `CC(=O)Oc1c(C)[nH]ccc1=O`, the survivor count is, setting by setting: (dose: 1200.0 mg/kg/injection, schedule: Q04DX003 (sc), vehicle: suspension in saline) 2 of 6 on day 11; (dose: 2400.0 mg/kg/injection, schedule: Q04DX003 (sc), vehicle: suspension in saline) 0 of 6 on day 11.
Turning to `COc1ccc(Cl)[n+]([O-])n1`, for the setting “dose: 200.0 mg/kg/injection, schedule: Q04DX003 (sc), vehicle: Klucel (hydroxypropylcellulose) (HPC)”, the survivor count is 0 of 6 on day 11.
In the case of `COc1cc(NCCCCCCCNC(C)C)c2nccc(C)c2c1`, the T/C (dose: 75.0 mg/kg/injection, schedule: Q04DX003 (sc), vehicle: saline) is 136 % of control [5 of 6 alive on day 11]. In addition, for the setting “dose: 300.0 mg/kg/injection, schedule: Q04DX003 (sc), vehicle: saline”, the survivor count is recorded as 0 of 6 on day 11.
For the molecule `C[Si](C)(CCl)N[Si](C)(C)CCl`, the T/C runs as follows: (dose: 300.0 mg/kg/injection, schedule: Q04DX003 (sc), vehicle: saline with Tween-80) 141 % of control; (dose: 600.0 mg/kg/injection, schedule: Q04DX003 (sc), vehicle: saline with Tween-80) 135 % of control. For the same molecule, the survivor count under setting [1] was 0 of 6 on day 11.
In the case of `Cc1c2oc3c(C)ccc(C(=O)NC4C(=O)NC(C(C)C)C(=O)N5CCCC5C(=O)N(C)CC(=O)N(C)C(C(C)C)C(=O)OC4C)c3nc-2c(C(=O)NC2C(=O)NC(C(C)C)C(=O)N3CCC3C(=O)N(C)CC(=O)N(C)C(C(C)C)C(=O)OC2C)c(N)c1=O` (stereo not given) (I: TV[Aze][Sar][NMeV] / II: TVP[Sar][NMeV]; ester I:1-I:C, II:1-II:C; linker I:N-II:N via Actinocin(1to9); configuration not given here), the survivor count (dose: 2.0 mg/kg/injection, schedule: Q04DX003 (sc), vehicle: saline + alcohol) is 0 of 6 on day 11.
Consider `O=C(O)C1CSCN1` (stereo not given), for which the survivor count reads like this: (dose: 200.0 mg/kg/injection, schedule: Q01DX010 (sc), vehicle: water) 1 of 3 on day 11; (dose: 400.0 mg/kg/injection, schedule: Q01DX010 (sc), vehicle: water) 0 of 3 on day 11.
In the case of `CCN(CC)CCCNc1nccc2c(C)c3[nH]c4ccncc4c3cc12`, where the note is “dose: 2.5 mg/kg/injection, schedule: Q01DX010 (sc), vehicle: other”, the T/C was 125 % of control. In addition, the survivor count (dose: 20.0 mg/kg/injection, schedule: Q01DX010 (sc), vehicle: other) is 0 of 3 on day 11.
`CN(C)N=Nc1ccccc1`: where the note is “dose: 100.0 mg/kg/injection, schedule: Q01DX010 (sc), vehicle: Klucel (hydroxypropylcellulose) (HPC)”, the survivor count is reported as 0 of 3 on day 11.
